According to PubChem BioAssay AID338 (DTP/NCI, 2004):
The list is a part of this screen's results and no random one: its compounds were picked by chemical class. Not every dose and run of a compound is shown. T/C gives the treated animals as a percentage of the vehicle group. For survival time, this PubChem deposit counts one and a half times the control or more as active, and values a quarter to a half above the control carry no call in these data; other NCI protocols may use other cut-offs. Some T/C values are marked as having no survivor count here; that says nothing about deaths at the dose. Schedule codes are those of the source, read here as Q, the interval in days (D) or hours (H), X, the number of doses. Some entries hold several experiments; the results are listed from low to high.

System: BDF1 mice, P388 leukemia (terephthalanilide-resistant), survival T/C
Assay: NCI In Vivo Anticancer Drug Screen. Data for tumor model P388 Leukemia resistant to A Terephthalanilide; NSC 38280 (intraperitoneal) in B6D2F1 (BDF1) mice
Conditions: T/C endpoint: median survival time, schedule: Q01DX010 (ip), vehicle: saline, higher T/C = longer survival
Protocol: The antitumor activity of compounds was measured in mice bearing transplantable tumors. Survival or tumor size were measured and the results are expressed as the measurement made in the treated group (T) divided by the measurement made in the vehicle treated control group (C). The tumor model used in this assay is P388 Leukemia resistant to A Terephthalanilide; NSC 38280 (intraperitoneal) in B6D2F1 (BDF1) mice

SMILES: O=C(O)CN(CCCl)CCCl
- T/C (dose: 0.63 mg/kg/injection): 133 [survivor count not shown] and 140 % of control [survivor count not shown]
- T/C (dose: 1.25 mg/kg/injection): 150 [survivor count not shown] and 166 % of control [survivor count not shown]
- T/C (dose: 2.5 mg/kg/injection): 165 [survivor count not shown] and 222 % of control [survivor count not shown]
- T/C (dose: 5.0 mg/kg/injection): 88 % of control [survivor count not shown]

SMILES: CC(C(=O)O)N(CCCl)CCCl (configuration not stated)
- T/C (dose: 0.5 mg/kg/injection): 127 [survivor count not shown] and 130 % of control [survivor count not shown]
- T/C (dose: 1.0 mg/kg/injection): 166 [survivor count not shown] and 210 % of control [survivor count not shown]
- T/C (dose: 2.0 mg/kg/injection): 215 [survivor count not shown] and 233 % of control [survivor count not shown]
- T/C (dose: 4.0 mg/kg/injection): 105 % of control [survivor count not shown]

SMILES: ClCCN(CCCl)Cc1nc2ccccc2[nH]1
- T/C (dose: 1.25 mg/kg/injection): 100 % of control [survivor count not shown]
- T/C (dose: 2.5 mg/kg/injection): 100 % of control [survivor count not shown]
- T/C (dose: 5.0 mg/kg/injection): 109 % of control [survivor count not shown]
- T/C (dose: 10.0 mg/kg/injection): 90 % of control [survivor count not shown]

SMILES: NC1CCCCC1.NP(=O)(O)N(CCCl)CCCl
- T/C (dose: 31.3 mg/kg/injection): 188 [survivor count not shown] and 263 % of control [survivor count not shown]
- T/C (dose: 62.5 mg/kg/injection): 136 [survivor count not shown] and 158 % of control [survivor count not shown]

SMILES: NC(Cc1ccccc1N(CCCl)CCCl)C(=O)O (configuration not stated)
- T/C (dose: 125.0 micrograms/kg/injection): 127 % of control [survivor count not shown]
- T/C (dose: 250.0 micrograms/kg/injection): 100 % of control [survivor count not shown]
- T/C (dose: 500.0 micrograms/kg/injection): 136 % of control [survivor count not shown]
- T/C (dose: 1000.0 micrograms/kg/injection): 122 % of control [survivor count not shown]

SMILES: ClCCNCCCl
- T/C (dose: 18.8 mg/kg/injection): 100 [survivor count not shown] and 122 % of control [survivor count not shown]
- T/C (dose: 37.5 mg/kg/injection): 126 [survivor count not shown] and 133 % of control [survivor count not shown]
- T/C (dose: 75.0 mg/kg/injection): 94 % of control [survivor count not shown]

SMILES: NC(Cc1cccc(N(CCCl)CCCl)c1)C(=O)O (configuration not stated)
- T/C (dose: 0.63 mg/kg/injection): 113 % of control [survivor count not shown]
- T/C (dose: 1.25 mg/kg/injection): 104 % of control [survivor count not shown]
- T/C (dose: 2.5 mg/kg/injection): 90 % of control [survivor count not shown]
- T/C (dose: 313.0 micrograms/kg/injection): 95 % of control [survivor count not shown]
- T/C (dose: 625.0 micrograms/kg/injection): 100 % of control [survivor count not shown]
- T/C (dose: 1250.0 micrograms/kg/injection): 122 % of control [survivor count not shown]
